# Reference: the supplement of paper PMC8551327
# Counter-ions that a name gives are not always drawn. The list shows a part of the results. Cut-off read from the data, not from the text of the source: active = 1.25 or more and inactive = the rest. Repeats are few or missing, and single values can be far off.
# Test system: Kcc2-LUC knock-in mouse primary cortical neurons (Kcc2 promoter reporter)
# Experiment: Kcc2 promoter-driven luciferase activity relative to vehicle control (fold of vehicle (ratio)); higher = stronger Kcc2 promoter activation (Kcc2 expression enhancer)
# Settings: 100 nM; 48 h
row,Compound,Kcc2 promoter-driven luciferase activity
1,"COc1cc(OC)c2c(C)cc(=O)oc2c1 [5,7-Dimethoxy-4-methylchromen-2-one]",inactive: 1.09
2,Cc1c2oc3c(C)ccc(C(=O)N[C@@H]4C(=O)N[C@H](C(C)C)C(=O)N5CCC[C@H]5C(=O)N(C)CC(=O)N(C)[C@@H](C(C)C)C(=O)O[C@@H]4C)c3nc-2c(C(=O)N[C@@H]2C(=O)N[C@H](C(C)C)C(=O)N3CCC[C@H]3C(=O)N(C)CC(=O)N(C)[C@@H](C(C)C)C(=O)O[C@@H]2C)c(N)c1=O [Actinomycin D],inactive: 0.02
3,CCN(CC)CCOc1ccc(C(O)(Cc2ccc(OC)cc2)c2ccccc2)cc1 (stereo not drawn),inactive: 0.24
4,"c1ccc(-c2cccc(-c3ccccn3)n2)nc1 [2,2':6',2''-Terpyridine]",inactive: 0.94
5,O[C@H]1[C@H](O)[C@@H](O)[C@H](O)[C@@H](O)[C@H]1O [Inositol],inactive: 0.68
6,CO[C@H]1C[C@@H]2CC[C@@H](C)[C@@](O)(O2)C(=O)C(=O)N2CCCC[C@H]2C(=O)O[C@H]([C@H](C)C[C@@H]2CC[C@@H](O)[C@H](OC)C2)CC(=O)[C@H](C)/C=C(\C)[C@@H](O)[C@@H](OC)C(=O)[C@H](C)C[C@H](C)/C=C/C=C/C=C/1C [Sirolimus],inactive: 0.9
7,"CCN1CCC(O)(/C=C/c2ccc(C)cc2)C(C(=O)/C=C/c2ccc(C)cc2)C1 (stereo not drawn) [2-Propen-1-one, hydrochloride]",inactive: 0.8
8,"NC1=NCN([C@@H]2O[C@H](CO)[C@@H](O)[C@H]2O)C(=O)N1 [5,6-dihydro-5'-azacytidine]",inactive: 0.69
9,"CCCc1c(Cl)nc(Cl)nc1Cl [2,4,6-Trichloro-5-propylpyrimidine]",inactive: 1.06
10,Cc1cc(Cl)ccc1N1C(=O)C(=O)C(c2nc3ccccc3o2)C(=O)C1=O,inactive: 1.07
11,CN(N=O)C(=O)N[C@@H]1[C@@H](O)[C@H](O)[C@@H](CO)O[C@@H]1O [Streptozocin],inactive: 0.87
12,COC(=O)C1(C)CCCC2(C)C3=CC(O)C4(C(C)C)OC4C3(O)CCC12 (stereo not drawn),inactive: 1.03
13,O=C(NCCCCCCCCNC(=O)c1cccc2ccccc12)c1cccc2ccccc12,active: 1.29
14,COc1ccc2nc(C)cc(NCCCCCCCCCNc3cc(C)nc4ccc(OC)cc34)c2c1,inactive: 0.76
15,C=C(Cl)[C@](Cl)(CBr)CC[C@@H](Br)C(C)(C)Cl (racemic) [Halomon (racemic)],inactive: 0.94
16,"COc1ccc(/C=C/C(=O)Oc2cc(O)cc(O)c2)cc1 [(3,5-Dihydroxyphenyl) (E)-3-(4-methoxyphenyl)prop-2-enoate]",inactive: 1.09
17,N[C@@H](CSSC[C@H](N)C(=O)O)C(=O)O [Cystine],inactive: 1.13
18,Cc1nc(N)nc(N)c1-c1ccc(Cl)c(Cl)c1,inactive: 1.03
19,COc1cc(Cc2nccc3cc(OC)c(OC)cc23)c(C(C)=O)cc1OC [Pseudocoralyne; Acetopapaverine;],inactive: 0.62
20,"CC(=O)Nc1ccc(-c2nc3ccccc3s2)cc1 [N-[4-(1,3-benzothiazol-2-yl)phenyl]acetamide]",active: 1.28
21,O=C1c2cccc(O)c2C(=O)c2c(O)cccc21 [Danthron],inactive: 0.93
22,O=C1C(C(O)(C(F)(F)F)C(F)(F)F)CCC1C(O)(C(F)(F)F)C(F)(F)F (stereo not drawn),inactive: 0.96
23,BrCCC[P+](c1ccccc1)(c1ccccc1)c1ccccc1 [(3-Bromopropyl)triphenylphosphonium bromide],inactive: 0.46
24,Cc1nc(C(N)=S)sc1C(=O)CC(=O)C(=O)Nc1c(C(C)C)cccc1C(C)C,inactive: 1.11
25,O=C1CC[C@@H](C(=O)O)N1 [Pidolic Acid],active: 1.26
26,"Cc1[nH]c(=O)nc(N/N=C/c2ccc(Cl)cc2)c1C(=O)Nc1ccc(Cl)cc1 [Pyrimidine-5-carboxamide,2-dihydro- 6-methyl-2-oxo-]",inactive: 1.24
27,"COc1ccc(OC)c2nc3c(C(=O)NCCN(C)C)cccc3nc12 [1-Phenazinecarboxamide,9-dimethoxy-, monohydrochloride]",inactive: 0.72
28,BrC(/C=N/Nc1nnc(-c2ccccc2)c(-c2ccccc2)n1)C(Br)c1ccccc1 (stereo not drawn),inactive: 0.79

# Copied from the list:
# In Kcc2 promoter-driven luciferase activity, CCCc1c(Cl)nc(Cl)nc1Cl [2,4,6-Trichloro-5-propylpyrimidine] is listed with inactive: 1.06
# In Kcc2 promoter-driven luciferase activity, COc1ccc(/C=C/C(=O)Oc2cc(O)cc(O)c2)cc1 [(3,5-Dihydroxyphenyl) (E)-3-(4-methoxyphenyl)prop-2-enoate] is listed with inactive: 1.09
